The campaign covered roughly 320,000 compounds. About 2,100 (0.66%) were called active. The inconclusive results got no clear call from the source; some entries with a clear call stand among them for comparison. Calls come from the whole dose curve; as a rule, active = well fitted inhibition curve with a large enough effect in the signal ratio, with a control signal flat (not every such curve was filed as active); inconclusive = small, poorly fitted or top-dose-only effect, or effect the other way, or a change in a side signal; inactive = flat fitted curve, though single readings scatter; the % refers to the signal ratio. Where the call is inconclusive, the potency comes from a doubtful curve fit.
Assay: qHTS Assay for Lipid Storage Modulators in Drosophila S3 Cells
Settings: BODIPY lipid droplet fluorescence, 18-24 h, cells fed with added oleic acid; lipid storage change, negative = inhibition: at 46.1 µM (top of the series) unless noted
Procedure, shortened: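 Drosophila S3 cells loaded with oleic acid (400 uM, as added) and compounds at several concentrations; lipid droplets imaged by 488-nm laser-scanning cytometry, 500–530 nm intensity and object ratio to cell channel. Percent activity normalized to 20 uM Triacsin C.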
For `O=C(CCSc1nnc2ccc3ccccc3n12)Nc1ccc(F)cc1`, the lipid storage change, negative = inhibition was inconclusive: -11.3%.
With `CCN(Cc1ccncc1)Cc1c(O)ccc2ccccc12` the lipid storage change, negative = inhibition was inconclusive: 5.39%.
For `COc1ccc(CCNC(=O)c2cc(=O)c3cc(C)ccc3o2)cc1OC`, the Potency was inconclusive: 1.84 µM [falling, partial curve].
With `Cc1ccc(NC(=O)CCc2nnc(SCC(=O)Nc3ccccc3C)n2C)cc1Cl` the lipid storage change, negative = inhibition was inconclusive: 320%.
For `CCOC(=O)c1ccc(NC(=O)CCc2nnc3ccc(N4CCCC4)nn23)cc1`, the Potency was inconclusive: 29.1 µM [falling, single point].
For `CC1CCc2ccccc2N1CC(=O)Nc1cccc(S(=O)(=O)N2CCCC2)c1` (configuration not stated), the lipid storage change, negative = inhibition was “inconclusive”.
With `O=[N+]([O-])c1ccc2[nH]c3c(c2c1)CCCC3` the Potency was inconclusive: 6.51 µM [cytotoxic, partial curve].
In the case of `N#Cc1ccc(C23CC4CC(CC(C4)C2)C3)[nH]c1=O`, the lipid storage change, negative = inhibition is reported as inconclusive: 19.8%.
For `O=C1N(CN2CCN(Cc3ccccc3)CC2)c2ccccc2C12OCCCO2`, the Potency was inconclusive: 1.84 µM [falling, partial curve].
For `N=c1oc2ccc3ccccc3c2cc1-c1nnc2n1CCCCC2`, the lipid storage change, negative = inhibition was inconclusive: 0.966%.
In the case of `Fc1ccc(-n2c(-c3ccc4ccccc4n3)n[nH]c2=S)cc1Cl`, the lipid storage change, negative = inhibition is reported as inconclusive: 39.9%.
With `O=c1c(Cl)c(N2CCN(c3ccccc3)CC2)cnn1C12CC3CC(CC(C3)C1)C2` the lipid storage change, negative = inhibition was inconclusive: 1.24%.
With `COc1cc(NC(=S)NCc2cccnc2)cc(OC)c1` the Potency was active: 5.8 µM.
For `CCN(CC)c1ccc(/C=N/NC(=S)NCc2ccc(OC)cc2)cc1`, the lipid storage change, negative = inhibition was inconclusive: 12.1%.
For `CC(=O)c1ccc(C(=O)N2CCCC(C(=O)c3ccc(Cl)cc3)C2)s1` (configuration not stated), the Potency was inconclusive: 29.1 µM [falling, single point].
With `COCCOC(=O)c1c(C)oc2ccc(OCc3cc(C(=O)OC)oc3C)cc12` the lipid storage change, negative = inhibition was inconclusive: 15.5%.
For `COc1cc(C(=O)NCc2nnc(SCC(=O)N3CCc4ccccc43)o2)cc(OC)c1OC`, the lipid storage change, negative = inhibition was inconclusive: -28.2%.
For `O=Cc1ccc2cccnc2n1`, the lipid storage change, negative = inhibition was inconclusive: -26.1%.
In the case of `NC(=O)[C@@H]1CC2(CC(c3cccc(NC(=O)COc4ccc(Cl)cc4)c3)=NO2)CN1C(=O)COc1ccc(Cl)cc1` (some centres not stated), the lipid storage change, negative = inhibition is reported as inconclusive: -26.9%.
For `Nc1[nH]c(N=NC(=O)c2ccc(Cl)cc2)c2ccccc12`, the lipid storage change, negative = inhibition was inconclusive: 13.6%.
In the case of `Cc1nn2c(CN(C(=O)COc3ccccc3)c3ccccc3)nnc2c2ccccc12`, the lipid storage change, negative = inhibition is reported as inconclusive: 5.92%.
With `O=c1c(-c2cccc([N+](=O)[O-])c2)[n+]([O-])c2ccccc2n1O` the lipid storage change, negative = inhibition was inconclusive: 23.5%.

From PubChem BioAssay AID2685 (National Center for Advancing Translational Sciences (NCATS), 2010)
% is set by controls: 0 for no effect and ±100 for the full control effect; potency is the fitted concentration of half-maximal effect.
